Test [1] addresses sigR-yfp-pET28a (+) protein (SYP) (S. coelicolor M145) (UniProt Q7AKG9). Put plainly: FRET or BRET; in vitro, 0.5 μM RCP and 0.5 μM SYP in binding buffer (0.01 mM EDTA, 20% glycerol, 10 mM MgCl2, 40 mM Tris, pH 8.0), 30°C, under nitrogen; excitation 440 nm, emission 478 and 528 nm; spectra and time courses; 2.5 mM DTT added in some time courses; both purified. (In general: In BRET a luciferase serves as donor, and the signal depends on an acceptor being close.)

Chains of the proteins cited; added tags and fusions are not shown.
UniProt Q7AKG9: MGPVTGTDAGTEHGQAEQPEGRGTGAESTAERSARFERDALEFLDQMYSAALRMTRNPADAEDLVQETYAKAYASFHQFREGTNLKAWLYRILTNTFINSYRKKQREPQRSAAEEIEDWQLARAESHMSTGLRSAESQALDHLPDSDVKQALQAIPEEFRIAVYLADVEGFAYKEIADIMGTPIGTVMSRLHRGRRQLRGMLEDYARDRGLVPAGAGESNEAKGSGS

The target is the same in test [2]. Put plainly: BLI; Octet QKe; biotinylated σR or SYP (0.5 μM in PBS) captured on streptavidin biosensor tips; RsrA or RCP as analyte, four 2-fold serial dilutions starting at 200 nM; kinetic buffer (binding buffer, 1 mg/ml BSA, 0.02% Tween 20); association and dissociation 14 min each; CFP or YFP as references; 1:1 binding model; both purified. Background: BLI is a label-free optical method that tracks binding on a fibre tip over time.

The target is the same in test [3]. Put plainly: FRET or BRET; in E. coli BL21 (DE3) cells co-expressing SYP and RCP, cells treated with CaCl2, suspended in PBS pH 7.8; FRET ratio 528 nm/478 nm before and after diamide or ROS.
The target of test [4] is SYP with the histidine tag removed by thrombin (zinc function assay) (S. coelicolor M145) (UniProt Q7AKG9). Put plainly: condition: only with increasing concentrations of diamide or ROS (-OCl, H2O2, ·OH, O2·-, ONOO-); FRET or BRET; dose-response of the same concentration of RCP, SYP and Zn2+ (500 μM) to increasing concentrations of diamide, -OCl, H2O2, ·OH, O2·- and ONOO-; ΔFRET ratio; both purified.

These are yes or no findings as the source states them, for the method shown. For some of these results: In cells and extracts the contact can be indirect. Some results given as binding are weak or reduced against the parent protein; the word gives no strength. Sequences can lack the tags named with a protein.

B1: rsrA-cfp-pET28a (+) protein (RCP) (protein, UniProt Q7AKG8 1-105)
chain: MSCGEPHETDCSEILDHLYEFLDKEMPDSDCVKFEHHFEECSPCLEKYGLEQAVKKLVKRCCGQDDVPGDLRAKVMGRLDLIRSGQSVPEHDVAAAPSSSAPQES
Take B1: the binding result in test [1], in test [2] and in test [3] was “binds” in each case.

B2: RCP with the histidine tag removed by thrombin (zinc function assay) (protein, UniProt Q7AKG8 1-105)
chain: MSCGEPHETDCSEILDHLYEFLDKEMPDSDCVKFEHHFEECSPCLEKYGLEQAVKKLVKRCCGQDDVPGDLRAKVMGRLDLIRSGQSVPEHDVAAAPSSSAPQES
For B2, the binding result in test [4] is listed as “no binding”.

Values taken from article PMC3961337.
